Laboratory results from paper doi:10.1101/2025.01.29.635371.
No constants are given. Whether binding was seen depends on the method and setting. Some binding calls cover weakened binding; strength is not graded here.

The chains behind the UniProt entries cited, without tags or fusion partners.
UniProt P25095, whole entry: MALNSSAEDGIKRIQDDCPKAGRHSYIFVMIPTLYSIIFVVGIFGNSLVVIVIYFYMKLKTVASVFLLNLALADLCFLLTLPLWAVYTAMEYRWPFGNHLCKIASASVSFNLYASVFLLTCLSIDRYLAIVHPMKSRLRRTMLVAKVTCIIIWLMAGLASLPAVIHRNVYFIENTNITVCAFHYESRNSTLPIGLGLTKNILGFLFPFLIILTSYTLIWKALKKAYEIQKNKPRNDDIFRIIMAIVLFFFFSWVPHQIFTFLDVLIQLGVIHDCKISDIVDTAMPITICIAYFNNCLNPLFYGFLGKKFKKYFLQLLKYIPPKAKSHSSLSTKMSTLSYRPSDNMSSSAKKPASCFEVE

Target: HA-AT1aR stably expressed in mouse aortic smooth muscle cells (MOVAS-AT1R) (UniProt P25095)
Assay: radioligand binding

- binding: binds
B1: ^125I-Angiotensin IV (angiotensin 3-8) (peptide)
peptide: VYIHPF
modifications: 125I label (radio-iodinated; residue not stated)
